# Experimental data from paper doi:10.1101/2024.05.06.592684.
# No constants are given. Whether binding was seen depends on the method and setting. For some assays here: In cells and extracts the contact can be indirect. Some results given as binding are weak or reduced against the parent protein; the word gives no strength. Sequences can lack the tags named with a protein.
# T1: HY5 fused with C-terminal part of YFP (HY5-cYFP) (Arabidopsis thaliana) (UniProt O24646)
# T1 sequence: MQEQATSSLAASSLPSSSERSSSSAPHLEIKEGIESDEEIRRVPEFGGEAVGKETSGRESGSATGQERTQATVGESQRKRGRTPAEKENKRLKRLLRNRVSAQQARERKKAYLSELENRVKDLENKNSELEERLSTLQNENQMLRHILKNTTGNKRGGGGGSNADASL
# T2: HY5 fused to the binding domain of GAL4 (Arabidopsis thaliana) (UniProt O24646)
# T2 sequence: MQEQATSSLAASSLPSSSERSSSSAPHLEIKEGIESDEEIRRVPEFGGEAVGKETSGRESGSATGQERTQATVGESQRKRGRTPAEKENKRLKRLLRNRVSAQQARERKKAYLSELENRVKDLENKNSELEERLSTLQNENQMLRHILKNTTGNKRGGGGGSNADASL
# What was measured:
# [1] = molecular target: T1, HY5 fused with C-terminal part of YFP (HY5-cYFP) (Arabidopsis thaliana); test: split reporter
# [2] = molecular target: T2, HY5 fused to the binding domain of GAL4 (Arabidopsis thaliana); test: two-hybrid
Molecule,binding [1],binding [2]
PYE fused to the N-terminal part of YFP (nYFP-PYE) (from UniProt Q9SN74 1-240),binds,
"PYE fused to the activation domain of GAL4 (protein, UniProt Q9SN74 1-240) MVSKTPSTSSDEANATADERCRKGKVPKRINKAVRERLKREHLNELFIELADTLELNQQNSGKASILCEATRFLKDVFGQIESLRKEHASLLSESSYVTTEKNELKEETSVLETEISKLQNEIEARANQSKPDLNTSPAPEYHHHHYQQQHPERVSQFPGLPIFQGPGFQQSATTLHPPATVLVLPIQPDPQTQDISEMTQAQQPLMFNSSNVSKPCPRYASAADSWSSRLLGERLKASE",,binds
